# This is one part of the list.
# B1: Latrophilin-3 (Homo sapiens), Q9HAR2 (protein)
# chain: MWPSQLLIFMMLLAPIIHAFSRAPIPMAVVRRELSCESYPIELRCPGTDVIMIESANYGRTDDKICDSDPAQMENIRCYLPDAYKIMSQRCNNRTQCAVVAGPDVFPDPCPGTYKYLEVQYECVPYKVEQKVFLCPGLLKGVYQSEHLFESDHQSGAWCKDPLQASDKIYYMPWTPYRTDTLTEYSSKDDFIAGRPTTTYKLPHRVDGTGFVVYDGALFFNKERTRNIVKFDLRTRIKSGEAIIANANYHDTSPYRWGGKSDIDLAVDENGLWVIYATEQNNGKIVISQLNPYTLRIEGTWDTAYDKRSASNAFMICGILYVVKSVYEDDDNEATGNKIDYIYNTDQSKDSLVDVPFPNSYQYIAAVDYNPRDNLLYVWNNYHVVKYSLDFGPLDSRSGQAHHGQVSYISPPIHLDSELERPSVKDISTTGPLGMGSTTTSTTLRTTTLSPGRSTTPSVSGRRNRSTSTPSPAVEVLDDMTTHLPSASSQIPALEESCEAVEAREIMWFKTRQGQIAKQPCPAGTIGVSTYLCLAPDGIWDPQGPDLSNCSSPWVNHITQKLKSGETAANIARELAEQTRNHLNAGDITYSVRAMDQLVGLLDVQLRNLTPGGKDSAARSLNKAMVETVNNLLQPQALNAWRDLTTSDQLRAATMLLHTVEESAFVLADNLLKTDIVRENTDNIKLEVARLSTEGNLEDLKFPENMGHGSTIQLSANTLKQNGRNGEIRVAFVLYNNLGPYLSTENASMKLGTEALSTNHSVIVNSPVITAAINKEFSNKVYLADPVVFTVKHIKQSEENFNPNCSFWSYSKRTMTGYWSTQGCRLLTTNKTHTTCSCNHLTNFAVLMAHVEVKHSDAVHDLLLDVITWVGILLSLVCLLICIFTFCFFRGLQSDRNTIHKNLCISLFVAELLFLIGINRTDQPIACAVFAALLHFFFLAAFTWMFLEGVQLYIMLVEVFESEHSRRKYFYLVGYGMPALIVAVSAAVDYRSYGTDKVCWLRLDTYFIWSFIGPATLIIMLNVIFLGIALYKMFHHTAILKPESGCLDNIKSWVIGAIALLCLLGLTWAFGLMYINESTVIMAYLFTIFNSLQGMFIFIFHCVLQKKVRKEYGKCLRTHCCSGKSTESSIGSGKTSGSRTPGRYSTGSQSRIRRMWNDTVRKQSESSFITGDINSSASLNREGLLNNARDTSVMDTLPLNGNHGNSYSIASGEYLSNCVQIIDRGYNHNETALEKKILKELTSNYIPSYLNNHERSSEQNRNLMNKLVNNLGSGREDDAIVLDDATSFNHEESLGLELIHEESDAPLLPPRVYSTENHQPHHYTRRRIPQDHSESFFPLLTNEHTEDLQSPHRDSLYTSMPTLAGVAATESVTTSTQTEPPPAKCGDAEDVYYKSMPNLGSRNHVHQLHTYYQLGRGSSDGFIVPPNKDGTPPEGSSKGPAHLVTSL
# Key:
# Assay in all cases: glycan array binding signal (z-score within array); higher = stronger binding
# Settings in all cases: glycan notation: IUPAC condensed, linker removed
# [1] = target: Fuc(a1-2)Gal(b1-4)GlcNAc(b1-3)Gal(b1-4)GlcNAc(b1-3)Gal(b1-4)GlcNAc
# How it was run: (§1)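 Glycan array data were curated from 3228 arrays in the Consortium for Functional Glycomics database and kept only where the protein sequence was available. Glycan names were converted to IUPAC-condensed notation, and columns mapping to the same glycan were averaged. The binding signal is a within-array Z-score, averaged across arrays of the same protein sequence at different concentrations or buffers and across linkers. Negative Z-scores can be read as non-binding.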
# [2] = target: Fuc(a1-2)Gal(b1-4)GlcNAc(b1-3)GalNAc
# How it was run: as §1
# [3] = target: Fuc(a1-2)Gal(b1-4)GlcNAc(b1-3)[Fuc(a1-2)Gal(b1-4)GlcNAc(b1-6)]GalNAc
# How it was run: as §1
# [4] = target: Fuc(a1-2)Gal(b1-4)GlcNAc(b1-6)GalNAc
# How it was run: as §1
# [5] = target: Fuc(a1-2)Gal(b1-4)GlcNAc6S
# How it was run: as §1
# [6] = target: Fuc(a1-2)Gal(b1-4)[Fuc(a1-3)]GlcNAc
# How it was run: as §1
# [7] = target: Fuc(a1-2)Gal(b1-4)[Fuc(a1-3)]GlcNAc(b1-2)Man(a1-3)[Fuc(a1-2)Gal(b1-4)[Fuc(a1-3)]GlcNAc(b1-2)Man(a1-6)]Man(b1-4)GlcNAc(b1-4)GlcNAc
# How it was run: as §1
# [8] = target: Fuc(a1-2)Gal(b1-4)[Fuc(a1-3)]GlcNAc(b1-2)Man(a1-6)[Fuc(a1-2)Gal(b1-4)[Fuc(a1-3)]GlcNAc(b1-2)Man(a1-3)]Man(b1-4)GlcNAc(b1-4)[Fuc(a1-6)]GlcNAc
# How it was run: as §1
# [9] = target: Fuc(a1-2)Gal(b1-4)[Fuc(a1-3)]GlcNAc(b1-2)[Fuc(a1-2)Gal(b1-4)[Fuc(a1-3)]GlcNAc(b1-4)]Man(a1-3)[Fuc(a1-2)Gal(b1-4)[Fuc(a1-3)]GlcNAc(b1-2)Man(a1-6)]Man(b1-4)GlcNAc(b1-4)GlcNAc
# How it was run: as §1
# [10] = target: Fuc(a1-2)Gal(b1-4)[Fuc(a1-3)]GlcNAc(b1-3)Gal(b1-4)[Fuc(a1-3)]GlcNAc
# How it was run: as §1
# [11] = target: Fuc(a1-2)Gal(b1-4)[Fuc(a1-3)]GlcNAc(b1-3)Gal(b1-4)[Fuc(a1-3)]GlcNAc(b1-3)Gal(b1-4)[Fuc(a1-3)]GlcNAc
# How it was run: as §1
# [12] = target: Fuc(a1-2)Gal(b1-4)[Fuc(a1-3)]GlcNAc(b1-3)GalNAc
# How it was run: as §1
# [13] = target: Fuc(a1-2)Gal(b1-4)[Fuc(a1-3)]GlcNAc(b1-3)[Neu5Ac(a2-6)Gal(b1-4)GlcNAc(b1-6)]Gal(b1-4)Glc
# How it was run: as §1
# [14] = target: Fuc(a1-2)Gal6S(b1-3)GlcNAc
# How it was run: as §1
# [15] = target: Fuc(a1-2)Gal6S(b1-3)GlcNAc6S
# How it was run: as §1
# Fuc(a1-2)Gal6S(b1-4)Glc = target: Fuc(a1-2)Gal6S(b1-4)Glc
# How it was run: as §1
# [16] = target: Fuc(a1-2)Gal6S(b1-4)Glc6S
# How it was run: as §1
# [17] = target: Fuc(a1-2)Gal6S(b1-4)GlcNAc
# How it was run: as §1
# Fuc(a1-2)[Gal(a1-3)]Gal = target: Fuc(a1-2)[Gal(a1-3)]Gal
# How it was run: as §1
# [18] = target: Fuc(a1-2)[Gal(a1-3)]Gal(b1-3)GalNAc
# How it was run: as §1
# [19] = target: Fuc(a1-2)[Gal(a1-3)]Gal(b1-3)GlcNAc
# How it was run: as §1
# [20] = target: Fuc(a1-2)[Gal(a1-3)]Gal(b1-3)GlcNAc(b1-2)Man(a1-3)[Fuc(a1-2)[Gal(a1-3)]Gal(b1-3)GlcNAc(b1-2)Man(a1-6)]Man(b1-4)GlcNAc(b1-4)GlcNAc
# How it was run: as §1
# [21] = target: Fuc(a1-2)[Gal(a1-3)]Gal(b1-3)GlcNAc(b1-2)Man(a1-3)[Fuc(a1-2)[Gal(a1-3)]Gal(b1-3)GlcNAc(b1-2)Man(a1-6)]Man(b1-4)GlcNAc(b1-4)[Fuc(a1-6)]GlcNAc
# How it was run: as §1
# [22] = target: Fuc(a1-2)[Gal(a1-3)]Gal(b1-3)GlcNAc(b1-3)GalNAc
# How it was run: as §1
# [23] = target: Fuc(a1-2)[Gal(a1-3)]Gal(b1-4)Glc
# How it was run: as §1
# [24] = target: Fuc(a1-2)[Gal(a1-3)]Gal(b1-4)GlcNAc
# How it was run: as §1
# [25] = target: Fuc(a1-2)[Gal(a1-3)]Gal(b1-4)GlcNAc(b1-2)Man(a1-3)[Fuc(a1-2)[Gal(a1-3)]Gal(b1-4)GlcNAc(b1-2)Man(a1-6)]Man(b1-4)GlcNAc(b1-4)GlcNAc
# How it was run: as §1
# [26] = target: Fuc(a1-2)[Gal(a1-3)]Gal(b1-4)GlcNAc(b1-2)Man(a1-3)[Fuc(a1-2)[Gal(a1-3)]Gal(b1-4)GlcNAc(b1-2)Man(a1-6)]Man(b1-4)GlcNAc(b1-4)[Fuc(a1-6)]GlcNAc
# How it was run: as §1
# [27] = target: Fuc(a1-2)[Gal(a1-3)]Gal(b1-4)GlcNAc(b1-3)GalNAc
# How it was run: as §1
# [28] = target: Fuc(a1-2)[Gal(a1-3)]Gal(b1-4)GlcNAc(b1-6)GalNAc
# How it was run: as §1
# [29] = target: Fuc(a1-2)[Gal(a1-3)]Gal(b1-4)[Fuc(a1-3)]Glc
# How it was run: as §1
# [30] = target: Fuc(a1-2)[Gal(a1-3)]Gal(b1-4)[Fuc(a1-3)]GlcNAc
# How it was run: as §1
# [31] = target: Fuc(a1-2)[Gal(a1-3)]Gal(b1-4)[Fuc(a1-3)]GlcNAc(b1-3)GalNAc
# How it was run: as §1
# [32] = target: Fuc(a1-2)[Gal(a1-4)]Gal(b1-4)GlcNAc
# How it was run: as §1
# [33] = target: Fuc(a1-2)[GalNAc(a1-3)]Gal
# How it was run: as §1
# [34] = target: Fuc(a1-2)[GalNAc(a1-3)]Gal(b1-3)GalNAc(a1-3)[Fuc(a1-2)]Gal(b1-4)GlcNAc
# How it was run: as §1
# [35] = target: Fuc(a1-2)[GalNAc(a1-3)]Gal(b1-3)GlcNAc
# How it was run: as §1
# [36] = target: Fuc(a1-2)[GalNAc(a1-3)]Gal(b1-3)GlcNAc(b1-2)Man(a1-3)[Fuc(a1-2)[GalNAc(a1-3)]Gal(b1-3)GlcNAc(b1-2)Man(a1-6)]Man(b1-4)GlcNAc(b1-4)GlcNAc
# How it was run: as §1
# [37] = target: Fuc(a1-2)[GalNAc(a1-3)]Gal(b1-3)GlcNAc(b1-2)Man(a1-3)[Fuc(a1-2)[GalNAc(a1-3)]Gal(b1-3)GlcNAc(b1-2)Man(a1-6)]Man(b1-4)GlcNAc(b1-4)[Fuc(a1-6)]GlcNAc
# How it was run: as §1
# [38] = target: Fuc(a1-2)[GalNAc(a1-3)]Gal(b1-3)GlcNAc(b1-3)GalNAc
# How it was run: as §1
# [39] = target: Fuc(a1-2)[GalNAc(a1-3)]Gal(b1-3)GlcNAc(b1-6)GalNAc
# How it was run: as §1
# [40] = target: Fuc(a1-2)[GalNAc(a1-3)]Gal(b1-4)Glc
# How it was run: as §1
# [41] = target: Fuc(a1-2)[GalNAc(a1-3)]Gal(b1-4)GlcNAc
# How it was run: as §1
# [42] = target: Fuc(a1-2)[GalNAc(a1-3)]Gal(b1-4)GlcNAc(b1-2)Man(a1-3)[Fuc(a1-2)[GalNAc(a1-3)]Gal(b1-4)GlcNAc(b1-2)Man(a1-6)]Man(b1-4)GlcNAc(b1-4)GlcNAc
# How it was run: as §1
# [43] = target: Fuc(a1-2)[GalNAc(a1-3)]Gal(b1-4)GlcNAc(b1-2)Man(a1-3)[Fuc(a1-2)[GalNAc(a1-3)]Gal(b1-4)GlcNAc(b1-2)Man(a1-6)]Man(b1-4)GlcNAc(b1-4)[Fuc(a1-6)]GlcNAc
# How it was run: as §1
binder,measurement,setting,value
B1,glycan array binding signal (z-score),[1],0.659
same,glycan array binding signal (z-score),[2],-0.401
same,glycan array binding signal (z-score),[3],-0.284
same,glycan array binding signal (z-score),[4],2.91
same,glycan array binding signal (z-score),[5],0.588
same,glycan array binding signal (z-score),[6],0.567
same,glycan array binding signal (z-score),[7],1.73
same,glycan array binding signal (z-score),[8],1.49
same,glycan array binding signal (z-score),[9],2.72
same,glycan array binding signal (z-score),[10],-0.103
same,glycan array binding signal (z-score),[11],-0.076
same,glycan array binding signal (z-score),[12],4.34
same,glycan array binding signal (z-score),[13],-0.72
same,glycan array binding signal (z-score),[14],1.28
same,glycan array binding signal (z-score),[15],-0.039
same,glycan array binding signal (z-score),Fuc(a1-2)Gal6S(b1-4)Glc,0.468
same,glycan array binding signal (z-score),[16],0.592
same,glycan array binding signal (z-score),[17],-0.836
same,glycan array binding signal (z-score),Fuc(a1-2)[Gal(a1-3)]Gal,-0.058
same,glycan array binding signal (z-score),[18],0.284
same,glycan array binding signal (z-score),[19],0.076
same,glycan array binding signal (z-score),[20],-1
same,glycan array binding signal (z-score),[21],-0.721
same,glycan array binding signal (z-score),[22],0.085
same,glycan array binding signal (z-score),[23],0.962
same,glycan array binding signal (z-score),[24],1.89
same,glycan array binding signal (z-score),[25],-0.684
same,glycan array binding signal (z-score),[26],-1.1
same,glycan array binding signal (z-score),[27],0.172
same,glycan array binding signal (z-score),[28],0.384
same,glycan array binding signal (z-score),[29],-0.915
same,glycan array binding signal (z-score),[30],0.315
same,glycan array binding signal (z-score),[31],-0.257
same,glycan array binding signal (z-score),[32],-0.055
same,glycan array binding signal (z-score),[33],-0.566
same,glycan array binding signal (z-score),[34],-1.2
same,glycan array binding signal (z-score),[35],-0.263
same,glycan array binding signal (z-score),[36],-0.097
same,glycan array binding signal (z-score),[37],1.47
same,glycan array binding signal (z-score),[38],0.027
same,glycan array binding signal (z-score),[39],0.106
same,glycan array binding signal (z-score),[40],-0.088
same,glycan array binding signal (z-score),[41],-0.285
same,glycan array binding signal (z-score),[42],-0.607
same,glycan array binding signal (z-score),[43],-0.618

# Retrieved one by one from above (two):
binder,measurement,setting,value
B1,glycan array binding signal (z-score),[5],0.588
same,glycan array binding signal (z-score),[11],-0.076
